# Measurements reported in the supplement of paper PMC8728848.
# The list shows a part of the results.
# What was measured:
# Assay in all cases: glycan array binding signal (z-score within array); higher = stronger binding
# Details in all cases: glycan notation: IUPAC condensed, linker removed
# [1] = target: Glc(b1-4)Glc
# How it was run: (§1)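 The binding signal is a Z-score computed within each array. Data were drawn from 3228 arrays in the Consortium for Functional Glycomics database, restricted to those with a known protein sequence. Scores were averaged over arrays of the same protein sequence at different concentrations or buffers, and over linkers, and negative values can be taken as non-binding.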
# [2] = target: Glc(b1-6)Glc
# How it was run: as §1
# [3] = target: GlcA(b1-3)Gal
# How it was run: as §1
# [4] = target: GlcA(b1-3)GlcNAc
# How it was run: as §1
# [5] = target: GlcA(b1-6)Gal
# How it was run: as §1
# [6] = target: GlcA3S(b1-3)Gal(b1-4)GlcNAc(b1-2)Man
# How it was run: as §1
# [7] = target: GlcA3S(b1-3)Gal(b1-4)GlcNAc(b1-3)Gal(b1-4)Glc
# How it was run: as §1
# [8] = target: GlcNAc(a1-3)Gal(b1-4)GlcNAc
# How it was run: as §1
# [9] = target: GlcNAc(a1-4)Gal(b1-3)GlcNAc
# How it was run: as §1
# [10] = target: GlcNAc(a1-4)Gal(b1-4)GalNAc
# How it was run: as §1
# [11] = target: GlcNAc(a1-4)Gal(b1-4)GlcNAc
# How it was run: as §1
# [12] = target: GlcNAc(a1-4)Gal(b1-4)GlcNAc(b1-3)Gal(b1-4)Glc
# How it was run: as §1
# [13] = target: GlcNAc(a1-4)Gal(b1-4)GlcNAc(b1-3)Gal(b1-4)GlcNAc
# How it was run: as §1
# [14] = target: GlcNAc(a1-4)Gal(b1-4)GlcNAc(b1-3)Gal(b1-4)GlcNAc(b1-3)Gal(b1-4)GlcNAc
# How it was run: as §1
# [15] = target: GlcNAc(a1-4)Gal(b1-4)GlcNAc(b1-3)Gal(b1-4)[Fuc(a1-3)]GlcNAc(b1-3)Gal(b1-4)[Fuc(a1-3)]GlcNAc
# How it was run: as §1
# [16] = target: GlcNAc(a1-6)Gal(b1-4)GlcNAc
# How it was run: as §1
# [17] = target: GlcNAc(b1-2)Gal(b1-3)GalNAc
# How it was run: as §1
# [18] = target: GlcNAc(b1-2)Man(a1-3)[GlcNAc(b1-2)Man(a1-6)]Man(b1-4)GlcNAc(b1-4)GlcNAc
# How it was run: as §1
# [19] = target: GlcNAc(b1-2)Man(a1-3)[GlcNAc(b1-2)Man(a1-6)]Man(b1-4)GlcNAc(b1-4)[Fuc(a1-6)]GlcNAc
# How it was run: as §1
# [20] = target: GlcNAc(b1-2)Man(a1-3)[GlcNAc(b1-4)][GlcNAc(b1-2)Man(a1-6)]Man(b1-4)GlcNAc(b1-4)GlcNAc
# How it was run: as §1
# [21] = target: GlcNAc(b1-2)Man(a1-3)[GlcNAc(b1-4)][GlcNAc(b1-2)Man(a1-6)]Man(b1-4)GlcNAc(b1-4)[Fuc(a1-6)]GlcNAc
# How it was run: as §1
# [22] = target: GlcNAc(b1-2)[GlcNAc(b1-4)]Man(a1-3)[GlcNAc(b1-2)Man(a1-6)]Man(b1-4)GlcNAc(b1-4)GlcNAc
# How it was run: as §1
# [23] = target: GlcNAc(b1-2)[GlcNAc(b1-4)]Man(a1-3)[GlcNAc(b1-4)][GlcNAc(b1-2)Man(a1-6)]Man(b1-4)GlcNAc(b1-4)GlcNAc
# How it was run: as §1
# [24] = target: GlcNAc(b1-2)[GlcNAc(b1-4)]Man(a1-3)[GlcNAc(b1-4)][GlcNAc(b1-2)[GlcNAc(b1-6)]Man(a1-6)]Man(b1-4)GlcNAc(b1-4)GlcNAc
# How it was run: as §1
# [25] = target: GlcNAc(b1-2)[GlcNAc(b1-4)]Man(a1-3)[GlcNAc(b1-4)][GlcNAc(b1-2)[GlcNAc(b1-6)]Man(a1-6)]Man(b1-4)GlcNAc(b1-4)[Fuc(a1-6)]GlcNAc
# How it was run: as §1
# [26] = target: GlcNAc(b1-2)[GlcNAc(b1-6)]Man(a1-6)[GlcNAc(b1-2)Man(a1-3)]Man(b1-4)GlcNAc(b1-4)GlcNAc
# How it was run: as §1
# [27] = target: GlcNAc(b1-2)[GlcNAc(b1-6)]Man(a1-6)[GlcNAc(b1-2)Man(a1-3)]Man(b1-4)GlcNAc(b1-4)[Fuc(a1-6)]GlcNAc
# How it was run: as §1
# [28] = target: GlcNAc(b1-2)[GlcNAc(b1-6)]Man(a1-6)[GlcNAc(b1-4)][GlcNAc(b1-2)Man(a1-3)]Man(b1-4)GlcNAc(b1-4)GlcNAc
# How it was run: as §1
# [29] = target: GlcNAc(b1-3)Fuc
# How it was run: as §1
# [30] = target: GlcNAc(b1-3)Gal
# How it was run: as §1
# [31] = target: GlcNAc(b1-3)Gal(b1-3)GalNAc
# How it was run: as §1
# [32] = target: GlcNAc(b1-3)Gal(b1-4)Glc
# How it was run: as §1
# [33] = target: GlcNAc(b1-3)Gal(b1-4)GlcNAc
# How it was run: as §1
# [34] = target: GlcNAc(b1-3)Gal(b1-4)GlcNAc(b1-2)Man(a1-3)[GlcNAc(b1-3)Gal(b1-4)GlcNAc(b1-2)Man(a1-6)]Man(b1-4)GlcNAc(b1-4)GlcNAc
# How it was run: as §1
# [35] = target: GlcNAc(b1-3)Gal(b1-4)GlcNAc(b1-2)Man(a1-3)[GlcNAc(b1-3)Gal(b1-4)GlcNAc(b1-2)Man(a1-6)]Man(b1-4)GlcNAc(b1-4)[Fuc(a1-6)]GlcNAc
# How it was run: as §1
# [36] = target: GlcNAc(b1-3)Gal(b1-4)GlcNAc(b1-2)[GlcNAc(b1-3)Gal(b1-4)GlcNAc(b1-6)]Man(a1-6)[GlcNAc(b1-3)Gal(b1-4)GlcNAc(b1-2)Man(a1-3)]Man(b1-4)GlcNAc(b1-4)GlcNAc
# How it was run: as §1
# [37] = target: GlcNAc(b1-3)Gal(b1-4)GlcNAc(b1-3)Gal(b1-4)GlcNAc
# How it was run: as §1
# [38] = target: GlcNAc(b1-3)Gal(b1-4)GlcNAc(b1-3)Gal(b1-4)GlcNAc(b1-2)Man(a1-3)[GlcNAc(b1-3)Gal(b1-4)GlcNAc(b1-3)Gal(b1-4)GlcNAc(b1-2)Man(a1-6)]Man(b1-4)GlcNAc(b1-4)GlcNAc
# How it was run: as §1
# [39] = target: GlcNAc(b1-3)Gal(b1-4)GlcNAc(b1-3)Gal(b1-4)GlcNAc(b1-2)Man(a1-3)[GlcNAc(b1-3)Gal(b1-4)GlcNAc(b1-3)Gal(b1-4)GlcNAc(b1-2)Man(a1-6)]Man(b1-4)GlcNAc(b1-4)[Fuc(a1-6)]GlcNAc
# How it was run: as §1
# [40] = target: GlcNAc(b1-3)Gal(b1-4)GlcNAc(b1-3)Gal(b1-4)GlcNAc(b1-2)[GlcNAc(b1-3)Gal(b1-4)GlcNAc(b1-3)Gal(b1-4)GlcNAc(b1-6)]Man(a1-6)[GlcNAc(b1-3)Gal(b1-4)GlcNAc(b1-3)Gal(b1-4)GlcNAc(b1-2)Man(a1-3)]Man(b1-4)GlcNAc(b1-4)[Fuc(a1-6)]GlcNAc
# How it was run: as §1
# [41] = target: GlcNAc(b1-3)Gal(b1-4)GlcNAc(b1-3)Gal(b1-4)GlcNAc(b1-3)Gal(b1-4)GlcNAc(b1-2)Man(a1-3)[GlcNAc(b1-3)Gal(b1-4)GlcNAc(b1-3)Gal(b1-4)GlcNAc(b1-3)Gal(b1-4)GlcNAc(b1-2)Man(a1-6)]Man(b1-4)GlcNAc(b1-4)GlcNAc
# How it was run: as §1
# [42] = target: GlcNAc(b1-3)Gal(b1-4)GlcNAc(b1-3)Gal(b1-4)GlcNAc(b1-3)Gal(b1-4)GlcNAc(b1-2)Man(a1-3)[GlcNAc(b1-3)Gal(b1-4)GlcNAc(b1-3)Gal(b1-4)GlcNAc(b1-3)Gal(b1-4)GlcNAc(b1-2)Man(a1-6)]Man(b1-4)GlcNAc(b1-4)[Fuc(a1-6)]GlcNAc
# How it was run: as §1
# [43] = target: GlcNAc(b1-3)Gal(b1-4)GlcNAc(b1-3)Gal(b1-4)GlcNAc(b1-3)Gal(b1-4)GlcNAc(b1-2)[GlcNAc(b1-3)Gal(b1-4)GlcNAc(b1-3)Gal(b1-4)GlcNAc(b1-3)Gal(b1-4)GlcNAc(b1-6)]Man(a1-6)[GlcNAc(b1-3)Gal(b1-4)GlcNAc(b1-3)Gal(b1-4)GlcNAc(b1-3)Gal(b1-4)GlcNAc(b1-2)Man(a1-3)]Man(b1-4)GlcNAc(b1-4)[Fuc(a1-6)]GlcNAc
# How it was run: as §1
# [44] = target: GlcNAc(b1-3)Gal(b1-4)GlcNAc(b1-3)Gal(b1-4)GlcNAc(b1-3)Gal(b1-4)GlcNAc(b1-3)Gal(b1-4)GlcNAc(b1-2)Man(a1-3)[GlcNAc(b1-3)Gal(b1-4)GlcNAc(b1-3)Gal(b1-4)GlcNAc(b1-3)Gal(b1-4)GlcNAc(b1-3)Gal(b1-4)GlcNAc(b1-2)Man(a1-6)]Man(b1-4)GlcNAc(b1-4)GlcNAc
# How it was run: as §1
# [45] = target: GlcNAc(b1-3)Gal(b1-4)GlcNAc(b1-3)Gal(b1-4)GlcNAc(b1-3)Gal(b1-4)GlcNAc(b1-3)Gal(b1-4)GlcNAc(b1-2)Man(a1-3)[GlcNAc(b1-3)Gal(b1-4)GlcNAc(b1-3)Gal(b1-4)GlcNAc(b1-3)Gal(b1-4)GlcNAc(b1-3)Gal(b1-4)GlcNAc(b1-2)Man(a1-6)]Man(b1-4)GlcNAc(b1-4)[Fuc(a1-6)]GlcNAc
# How it was run: as §1
binder,measurement,setting,value
"CD34 (Homo sapiens), P28906 (protein) MGSSHHHHHHSSGLVPRGSHMSTSLATSPTKPYTSSSPILSDIKAEIKCSGIREVKLTQGICLEQNKTSSCAEFKKDRGEGLARVLCGEEQADADAGAQVCSLLLAQSEVRPQCLLLVLANRTEISSKLQLMKKHQSDLKKLGILDFTEQDVASHQSYSQKT",glycan array binding signal (z-score),[1],0.603
same,glycan array binding signal (z-score),[2],-1.19
same,glycan array binding signal (z-score),[3],-0.005
same,glycan array binding signal (z-score),[4],-0.132
same,glycan array binding signal (z-score),[5],-0.021
same,glycan array binding signal (z-score),[6],0.913
same,glycan array binding signal (z-score),[7],-0.551
same,glycan array binding signal (z-score),[8],0.288
same,glycan array binding signal (z-score),[9],-0.399
same,glycan array binding signal (z-score),[10],0.052
same,glycan array binding signal (z-score),[11],-0.196
same,glycan array binding signal (z-score),[12],-0.657
same,glycan array binding signal (z-score),[13],-0.41
same,glycan array binding signal (z-score),[14],0.008
same,glycan array binding signal (z-score),[15],0.937
same,glycan array binding signal (z-score),[16],-0.269
same,glycan array binding signal (z-score),[17],1.04
same,glycan array binding signal (z-score),[18],-0.07
same,glycan array binding signal (z-score),[19],0.901
same,glycan array binding signal (z-score),[20],-0.541
same,glycan array binding signal (z-score),[21],-0.832
same,glycan array binding signal (z-score),[22],-0.523
same,glycan array binding signal (z-score),[23],-0.524
same,glycan array binding signal (z-score),[24],-0.258
same,glycan array binding signal (z-score),[25],-0.488
same,glycan array binding signal (z-score),[26],-0.052
same,glycan array binding signal (z-score),[27],0.924
same,glycan array binding signal (z-score),[28],-0.731
same,glycan array binding signal (z-score),[29],-1.22
same,glycan array binding signal (z-score),[30],-0.155
same,glycan array binding signal (z-score),[31],0.146
same,glycan array binding signal (z-score),[32],0.183
same,glycan array binding signal (z-score),[33],-0.319
same,glycan array binding signal (z-score),[34],-0.074
same,glycan array binding signal (z-score),[35],-0.026
same,glycan array binding signal (z-score),[36],-0.175
same,glycan array binding signal (z-score),[37],-0.666
same,glycan array binding signal (z-score),[38],0.842
same,glycan array binding signal (z-score),[39],0.264
same,glycan array binding signal (z-score),[40],0.954
same,glycan array binding signal (z-score),[41],0.192
same,glycan array binding signal (z-score),[42],-0.141
same,glycan array binding signal (z-score),[43],0.443
same,glycan array binding signal (z-score),[44],0.347
same,glycan array binding signal (z-score),[45],-0.827

# Exported tab-delimited: entries from further up
binder	measurement	setting	value
CD34 (Homo sapiens), P28906 (protein) MGSSHHHHHHSSGLVPRGSHMSTSLATSPTKPYTSSSPILSDIKAEIKCSGIREVKLTQGICLEQNKTSSCAEFKKDRGEGLARVLCGEEQADADAGAQVCSLLLAQSEVRPQCLLLVLANRTEISSKLQLMKKHQSDLKKLGILDFTEQDVASHQSYSQKT	glycan array binding signal (z-score)	[34]	-0.074
same	glycan array binding signal (z-score)	[35]	-0.026
same	glycan array binding signal (z-score)	[36]	-0.175
